Measured data: PubChem BioAssay AID1259424 (University of Nebraska Medical Center, 2018)
Screen: 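Seek colon cancer survival genes behaving like KSR1, using a six-gene signature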 (primary screen). Cell system: human HCT116 colon cancer cells. Reagents: siRNA pool against human genes, 50 nM. Measurement: 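Six signature mRNAs by branched-DNA multiplex assay, scaled to two housekeeping genes and non-targeting median, log2; matched to mean KSR1 knockdown profile by Pearson correlation and euclidean distance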. Scale: mean correlation with KSR1 profile and KSR1 correlation: higher = expression change more like KSR1 knockdown; mean distance from KSR1 profile: higher = expression change less like KSR1 knockdown.
The whole screen tested about 14,000 reagents; this is a random part of them. 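Higher correlation or smaller distance means closer resemblance to KSR1 loss; control wells, including KSR1 knockdowns, recur on many plates.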 The numbers tell different reagents against one gene apart. Not stated in the record: the time to read-out.

target gene	reagent no.	mean correlation with KSR1 profile	mean distance from KSR1 profile	KSR1 correlation, replicate 1	KSR1 correlation, replicate 2	KSR1 correlation, replicate 3
ALKBH5	1	0.759	3.1	0.709	0.662	0.576
PYGL	1	-0.617	4.57	-0.638	-0.613	-0.575
NABP1	1	-0.334	3.76	-0.394	-0.36	-0.258
CNOT12	1	0.349	3.1	0.371	0.24	0.135
SH3KBP1	1	-0.214	3.01	-0.144	-0.121	-0.187
RNF122	1	0.318	1.85	0.362	0.476	0.183
HIGD1B	1	-0.184	1.78	0.0429	-0.424	-0.376
RPS2	1	-0.718	2.12	-0.533	-0.54	-0.822
BRINP2	1	-0.704	1.24	-0.765	-0.116	-0.583
SPARC	1	0.822	0.796	0.594	0.789	0.839
TREML2	1	0.497	2.65	0.581	0.652	0.309
CCL1	1	0.11	1.43	0.252	0.0613	-0.0889
UGT1A1	1	-0.487	2.82	-0.497	-0.351	-0.743
ALB	1	0.092	1.85	0.000559	-0.0525	0.13
PPARA	1	0.349	1.15	0.465	0.0352	0.357
PPARA	2	0.467	3.23	0.491	0.0696	0.208
PCDHB1	1	0.312	2.04	0.319	0.113	0.148
CNKSR1	1	-0.0421	2.75	0.267	-0.343	-0.16
VCF1	1	-0.114	3.01	-0.0417	-0.153	-0.395
CAV2	1	0.614	1.1	0.602	0.599	0.404

As entered above.
Value for BRINP2 in “KSR1 correlation, replicate 2”: -0.116
Under “KSR1 correlation, replicate 2”, CNKSR1 has -0.343
